Laboratory results from the supplement of paper PMC10689618.
Where a name gives a salt, the structure may show the parent alone. The list shows a part of the results. Many values rest on one well or one pass, so single values are uncertain.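 Primary human fetal astrocytes engulfed labelled rat cortical synaptosomes, measured as a red/green ratio corrected for calcein live-cell signal and scaled to the plate median. Toxicity meant calcein falling over 30%; decreased phagocytosis meant below 70% of median above 5 µM.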

Experiments:
Human fetal astrocytes [1] = test: loss of total cells relative to no-compound high-control median (toxicity); higher = more toxic (fewer cells); conditions: 24 h
Human fetal astrocytes [2] = test: synaptosome phagocytosis (pHrodo/calcein intensity ratio) relative to plate median of data wells; higher = more phagocytosis; conditions: 24 h

Structure (SMILES) | loss of total cells (Human fetal astrocytes [1]; 1.39 µM) | loss of total cells (Human fetal astrocytes [1]; 2.78 µM) | loss of total cells (Human fetal astrocytes [1]; 5.56 µM) | loss of total cells (Human fetal astrocytes [1]; 11.11 µM) | loss of total cells (Human fetal astrocytes [1]; 22.22 µM) | synaptosome phagocytosis (Human fetal astrocytes [2]; 1.39 µM) | synaptosome phagocytosis (Human fetal astrocytes [2]; 2.78 µM) | synaptosome phagocytosis (Human fetal astrocytes [2]; 5.56 µM) | synaptosome phagocytosis (Human fetal astrocytes [2]; 11.11 µM) | synaptosome phagocytosis (Human fetal astrocytes [2]; 22.22 µM)
C#CCN1C(C)=C(C(=O)OC)C(c2cccc([N+](=O)[O-])c2)C(C(=O)OCC)=C1C (stereo not given) | -3.3% | 10.4% | 8.9% | -7.6% | 26.2% | 126% | 80.3% | 117% | 116% | 83.5%
CC(C)C[C@H](NC(=O)[C@@H](O)[C@H](N)Cc1ccccc1)C(=O)O [Bestatin hydrochloride] | -13.9% | -16.5% | -26.3% | -20.2% | 3.4% | 130% | 88% | 72.7% | 98.6% | 94%
N=C1Sc2ccccc2C2=NCCCN12 | -0.5% | 6.8% | 8% | 19% | 13.1% | 104% | 102% | 69.2% | 87.6% | 61.8%
O=[N+]([O-])c1cc2nc(O)c(O)nc2cc1[N+](=O)[O-] | 8.8% | -12% | 26.3% | 5.8% | 18.4% | 104% | 123% | 104% | 125% | 112%
CN(C)c1ccc(O)c2c1C[C@H]1C[C@H]3[C@H](N(C)C)C(O)=C(C(N)=O)C(=O)[C@@]3(O)C(O)=C1C2=O [Minocycline hydrochloride] | 6.2% | -4.1% | -8.9% | 9.5% | -7.5% | 98.2% | 114% | 130% | 111% | 88.8%
O=c1onc2n1-c1cc(Br)ccc1OC2 | -27% | 17.6% | 13.6% | 18.1% | -10.3% | 114% | 128% | 145% | 149% | 127%
CCn1cc(C(=O)O)c(=O)c2ccc(C)nc21 [Nalidixic acid sodium] | -10% | 8.6% | 6.1% | 2.9% | 17.8% | 96.2% | 104% | 98.7% | 97.7% | 101%
C[C@]12CC[C@@H]3c4ccc(O)cc4CC[C@H]3[C@@H]1CC[C@@H]2O [beta-Estradiol] | 10.5% | -29.9% | -9.9% | -14.8% | 3.2% | 102% | 83.9% | 94.1% | 110% | 89.9%
NC[C@@H]1O[C@H](C23CC4CC(CC(C4)C2)C3)Cc2c1ccc(O)c2O | -29.7% | -9.3% | -8.8% | -18.4% | 24.4% | 81.5% | 94.1% | 102% | 97.1% | 71.7%
COCC(=O)O[C@]1(CCN(C)CCCc2nc3ccccc3[nH]2)CCc2cc(F)ccc2[C@@H]1C(C)C [Mibefradil dihydrochloride] | 10.9% | 8.6% | -2.3% | 20% | 26.2% | 114% | 91.3% | 72.7% | 82.2% | 46.3%
CC(C)C[C@H](NC(=O)[C@H](O)[C@H](N)Cc1ccccc1)C(=O)O [Epibestatin hydrochloride] | -20.5% | -30.8% | -11.5% | -10.3% | 1.6% | 77.7% | 85.1% | 93.9% | 104% | 128%
Oc1cc2c(c(Cl)c1O)CCNCC2c1ccccc1 (racemic) [(±)-6-Chloro-PB hydrobromide] | -4.7% | -20.1% | 2.2% | -7.3% | 4.1% | 118% | 115% | 101% | 99.1% | 99.7%
OC[C@H]1O[C@@H](n2cnc3c(N[C@H]4CC5CCC4C5)ncnc32)[C@H](O)[C@@H]1O (stereo not given in full) | 0.4% | -15.4% | -1.6% | -10.3% | -4% | 114% | 108% | 88.3% | 140% | 118%
COc1ccc(-c2ccc(=N)n(CCCC(=O)O)n2)cc1 | -3.4% | -26.6% | -3.9% | -5.7% | -10.7% | 115% | 116% | 119% | 106% | 111%
O=S(=O)(c1cccc2cnccc12)N1CCNCC1 | 4.6% | -13.7% | -7.4% | -15.7% | -10.4% | 109% | 78.4% | 84.9% | 96.3% | 89.4%
O=C(O)CNC(=O)C(CS)Cc1ccccc1 (racemic) [DL-Thiorphan] | -27% | -42.8% | -18% | -8.8% | -28.8% | 58.5% | 90.7% | 99.6% | 110% | 114%
CN1[C@@H]2CC[C@H]1C[C@@H](OC(c1ccccc1)c1ccccc1)C2 [Benztropine mesylate] | -20.6% | -16.2% | -23.5% | -13.9% | -8.6% | 113% | 123% | 105% | 104% | 87.1%
N#C/C(=C\c1ccc(O)c(O)c1)C(=O)NCCCNC(=O)/C(C#N)=C/c1ccc(O)c(O)c1 [Tyrphostin AG 537] | -17.1% | -29% | -18% | -20.3% | -28.8% | 102% | 97.5% | 105% | 119% | 98.8%
COC(=O)c1c(C)[nH]c(C)c1C(=O)c1ccccc1Cc1ccccc1 | 3.8% | -35.9% | -11.5% | -14.8% | -2.4% | 125% | 119% | 89.7% | 96.5% | 128%
CC#CCOC(=O)c1c(C)nc2sc3c(c2c1N)CCC(O)C3 (stereo not given) | -11.5% | -9.3% | -34.8% | -2.7% | -32.1% | 77.7% | 85.8% | 76% | 90.8% | 113%

Quoted from the listing:
Entry for C#CCN1C(C)=C(C(=O)OC)C(c2cccc([N+](=O)[O-])c2)C(C(=O)OCC)=C1C (stereo not given) under loss of total cells (Human fetal astrocytes [1]; 11.11 µM): -7.6%
Entry for CN1[C@@H]2CC[C@H]1C[C@@H](OC(c1ccccc1)c1ccccc1)C2 [Benztropine mesylate] under synaptosome phagocytosis (Human fetal astrocytes [2]; 22.22 µM): 87.1%

(further entries)

Structure (SMILES) | loss of total cells (Human fetal astrocytes [1]; 1.39 µM) | loss of total cells (Human fetal astrocytes [1]; 2.78 µM) | loss of total cells (Human fetal astrocytes [1]; 5.56 µM) | loss of total cells (Human fetal astrocytes [1]; 11.11 µM) | loss of total cells (Human fetal astrocytes [1]; 22.22 µM) | synaptosome phagocytosis (Human fetal astrocytes [2]; 1.39 µM) | synaptosome phagocytosis (Human fetal astrocytes [2]; 2.78 µM) | synaptosome phagocytosis (Human fetal astrocytes [2]; 5.56 µM) | synaptosome phagocytosis (Human fetal astrocytes [2]; 11.11 µM) | synaptosome phagocytosis (Human fetal astrocytes [2]; 22.22 µM)
O=C(CCCN1CC=C(n2c(=O)[nH]c3ccccc32)CC1)c1ccc(F)cc1 [Droperidol] | -1.3% | 0.9% | 3.3% | 6.7% | -8% | 71.4% | 81.2% | 64.7% | 75.5% | 82.3%
O=C(O)CCC(NC(=O)c1ccccc1C(=O)O)C(=O)O [Phthalamoyl-L-glutamic acid trisodium] | -3.4% | -0.3% | 8.4% | -11.1% | -10.7% | 104% | 109% | 95% | 125% | 89.5%
COCCCC/C(=N\OCCN)c1ccc(C(F)(F)F)cc1 [Fluvoxamine maleate] | -8.8% | -12% | -9.1% | 8.5% | -2.4% | 86.1% | 90.9% | 83.9% | 86.7% | 105%
S=C(S)N1CCCC1 [Ammonium pyrrolidinedithiocarbamate] | -7.1% | 15.3% | 28.7% | 59.4% | 55.1% | 98.2% | 73.9% | 36.5% | 33.6% | 34.8%
CNC(=O)[C@H]1O[C@@H](n2cnc3c(NCc4ccc(N)cc4)ncnc32)[C@H](O)[C@@H]1O | -18.7% | -15.3% | -30.9% | -4.9% | -1.9% | 89.9% | 83.9% | 102% | 96.5% | 115%
Cl.N[C@@H](CCC(=O)O)C(=O)O [L-Glutamic acid hydrochloride] | 1.3% | -14.5% | 7.4% | -17.5% | 2.4% | 107% | 110% | 75.1% | 103% | 92.9%
CCc1cccc2c3c([nH]c12)C(CC)(CC(=O)O)OCC3 (stereo not given) [Etodolac] | 2.9% | 2.6% | 11.5% | -1.3% | -5.6% | 76.6% | 100% | 98% | 112% | 73.2%
Oc1ccc(-c2nc(-c3ccc(F)cc3)c(-c3ccncc3)[nH]2)cc1 | -12.1% | -17.1% | -10.6% | -9.4% | 13.2% | 134% | 101% | 88.5% | 113% | 81.8%
O=c1cc(N2CCOCC2)oc2c(-c3ccccc3)cccc12 [LY-294,002 hydrochloride] | -17.5% | -14.9% | -6.1% | -8.6% | 20.6% | 97.9% | 112% | 109% | 64.4% | 82.9%
OCCN1CCN(CCCN2c3ccccc3Sc3ccc(C(F)(F)F)cc32)CC1 [Fluphenazine dihydrochloride] | -0.4% | -10.3% | 3.3% | -3.1% | 12% | 104% | 93.6% | 84.5% | 49% | 47.3%
OC(CN1CCN(c2cccc(Cl)c2)CC1)C(c1ccccc1)c1ccccc1 (stereo not given) | -14.7% | -12.9% | -12.4% | -8.5% | 9.4% | 91.4% | 98.1% | 103% | 107% | 111%
COc1cc(NS(C)(=O)=O)ccc1Nc1c2ccccc2nc2ccccc12 [Amsacrine hydrochloride] | -4.4% | 4.5% | -4.1% | -14.8% | 16.2% | 107% | 102% | 72.8% | 72.8% | 82.4%
CCCOc1ccccc1-c1nc2[nH]nnc2c(=O)[nH]1 [Zaprinast] | -5.9% | -3.9% | 11.8% | -4.2% | -14% | 118% | 94.6% | 120% | 119% | 117%
O=c1[nH]c(=O)n([C@H]2C[C@H](O)[C@@H](CO)O2)cc1/C=C/Br [(E)-5-(2-Bromovinyl)-2'-deoxyuridine] | -7% | -18.6% | -25.3% | 0.4% | 5.6% | 86.7% | 117% | 121% | 127% | 116%
Cc1ccccc1N1C(=O)c2cc(S(N)(=O)=O)c(Cl)cc2NC1C (stereo not given) [Metolazone] | -4.3% | 4.1% | 16.4% | 19% | 13.1% | 120% | 90.3% | 126% | 134% | 114%
CC(N)=NCCCC[C@H](N)C(=O)O [L-N6-(1-Iminoethyl)lysine hydrochloride] | -3.3% | 2.3% | 18.3% | 21.9% | 31.8% | 108% | 123% | 103% | 109% | 132%
NC(N)=Nc1nc(CSCC/C(N)=N/S(N)(=O)=O)cs1 [Famotidine] | 4.6% | -3.4% | -5.8% | -5.8% | -18.4% | 96.5% | 114% | 111% | 112% | 88.1%
COc1ccc2c(c1)c(CC(=O)O)c(C)n2C(=O)c1ccccc1 [1-benzoyl-5-methoxy-2-methylindole-3-acetic acid] | -12.8% | -19.2% | -18% | 6.7% | -5.6% | 78.3% | 74.1% | 93.7% | 132% | 84.9%
CSC(=N)N [S-Methylisothiourea hemisulfate] | -16.6% | 5% | 5.2% | 6.7% | 5.6% | 95.2% | 118% | 128% | 124% | 92.4%
Nc1c(S(=O)(=O)O)cc(Nc2ccc(Nc3nc(Cl)nc(Nc4cccc(S(=O)(=O)O)c4)n3)c(S(=O)(=O)O)c2)c2c1C(=O)c1ccccc1C2=O [Reactive Blue 2] | -14% | -13.5% | -6.7% | 10.3% | 14.8% | 96% | 94.7% | 104% | 67.9% | 23.6%
